Measurements from patent US20100303814A1.
Results are given in words; binding and its absence hold for the method and conditions named. In cells and extracts the contact can be indirect. Here binding means that the protein was enriched with, or labelled near, the bait; the list need not be complete.

Key:
[1] = target: T1, variant HnRNPG (cancer-associated variant of heterogeneous ribonucleoprotein G) (human); assay: immunoprecipitation with VB1-213, in-solution digest, mass spectrometry
T1 sequence: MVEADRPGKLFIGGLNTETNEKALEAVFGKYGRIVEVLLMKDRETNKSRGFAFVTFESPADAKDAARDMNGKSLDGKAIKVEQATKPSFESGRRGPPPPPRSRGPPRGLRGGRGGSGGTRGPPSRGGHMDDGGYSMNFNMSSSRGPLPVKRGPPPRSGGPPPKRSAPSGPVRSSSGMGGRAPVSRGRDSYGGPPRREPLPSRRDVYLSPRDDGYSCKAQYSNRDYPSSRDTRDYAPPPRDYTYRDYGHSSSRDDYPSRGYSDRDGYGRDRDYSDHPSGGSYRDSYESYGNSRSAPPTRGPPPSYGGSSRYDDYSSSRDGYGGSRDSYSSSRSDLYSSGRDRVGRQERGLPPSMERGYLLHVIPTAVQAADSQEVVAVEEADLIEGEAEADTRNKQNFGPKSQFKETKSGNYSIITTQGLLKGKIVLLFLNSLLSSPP

[2] = target: T1, variant HnRNPG (cancer-associated variant of heterogeneous ribonucleoprotein G) (human); assay: immunoprecipitation with VB1-213 from DU-145, SKBR-3 and Panc-1 membrane preparations, 1D gel band, mass spectrometry
[3] = target: T1, variant HnRNPG (cancer-associated variant of heterogeneous ribonucleoprotein G) (human); assay: immunoprecipitation with VB1-213, 2D-PAGE Western blot probed with VB1-213, mass spectrometry

Measured: binding

B1: VB1-213 monoclonal antibody (antibody, human IgG1, V domains shown)
VH: EVQLLESGGGLVQPGGSLRLSCAASGFTFRSYAMSWVRQAPGKGLEWVSTISGRGVTTYYADSVKGRFTISRDNSKNTLYLQMNSLRADDTALYYCAKDRTRYYGMDVWGQGTTVTVSS
VL: SYELTQPPSVSVSPGQTASITCSGNKLGDKYACWYQQKSGQSPVLVIYQDSKRPSGIPERFSGSNSGNTATLTISGTQALDEADYYCQAWDNSTAVFGGGTKLTVLG
binds: all assays above
